Source: patent US20100204141A1, “USE OF BPP-B AS A THERAPEUTIC AGENT” (priority 2007, published 2010)
At least one peptide structure holds a part that was inferred or is arguable (an end, a ring closure or a residue). Square brackets hold non-standard residues; d marks the D form. Peptide text beside a SMILES is read from it. pGlu = O=C1CC[C@@H](C(=O)O)N1

Tests used:
[1] = tested on: Primary Human endothelial cells (HUVEC); test: Endothelial cell migration assay; assay type: cell-based; settings: peptide 10 micrograms per ml, 22 hours
[2] = tested on: Human Peripheral Blood Mononuclear Cells (PBMC); test: T cell proliferation assay (PHA, 3H-thymidine); assay type: cell-based; settings: peptide 10 micrograms per ml, 3H-thymidine incorporation
[3] = tested on: spleen cells of Ovalbumin-immunized Balb/c mice; test: Th1/Th2 cytokine profiling assay; assay type: cell-based, mouse; settings: peptide 10 micrograms per ml; Ovalbumin restimulation; 72 hours
A549 cells [4] = test: Apoptosis prevention assay (C2 ceramide, Annexin-5); assay type: cell-based, human; settings: pretreated 30 min with peptide 10 micrograms per ml
HCMV strain AD169 = test: HCMV plaque reduction assay in MRC-5 cells; settings: HCMV in MRC-5 cells; peptide 10 micrograms per ml; 7-10 days
[5] = tested on: Human Peripheral Blood Mononuclear Cells (PBMC); test: B cell proliferation assay (SAC plus Interleukin-2, 3H-thymidine); assay type: cell-based; settings: peptide 10 micrograms per ml, 3H-thymidine incorporation
[6] = tested on: hepatitis B virus (HBV) ayw strain; test: HBV assay: secreted HBV DNA by TaqMan PCR in HepG2-2.2.15 cells; settings: test peptide 10 micrograms per ml; six days; HBV DNA in supernatant
[7] = tested on: macrophages prepared from human PBMC; test: TNF alpha production assay (LPS-stimulated macrophages, ELISA); assay type: cell-based; settings: peptide 10 micrograms per ml, lipopolysaccharide 200 ng/ml, overnight
RAW 264.7 cells = test: Phagocytosis assay (Fluorescein-labeled Escherichia coli); assay type: cell-based, mouse; settings: peptide 10 micrograms per ml
HUVEC = test: Endothelial tube formation assay; assay type: cell-based, human; settings: peptide 10 micrograms per ml, 20 hours
HIV-1IIIB = test: HIV-1 antiviral assay (CPE reduction, MTS) in CEM-SS cells; settings: test peptide 10 micrograms per ml, 6 days post-infection
A549 cells [8] = test: Propidium iodide cell cycle assay; assay type: cell-based, human; settings: peptide 10 micrograms per ml, 24 hours
A549 cells [9] = test: Apoptosis induction assay (Annexin-5); assay type: cell-based, human; settings: peptide 10 micrograms per ml, 24 hours

`CC[C@H](C)[C@H](NC(=O)[C@H](CCCCN)NC(=O)[C@@H]1CCCN1C(=O)[C@H](CCCNC(=N)N)NC(=O)[C@@H]1CCCN1C(=O)[C@@H]1CCCN1C(=O)[C@H](CC(C)C)NC(=O)CNC(=O)[C@@H]1CCC(=O)N1)C(=O)N1CCC[C@H]1C(=O)N1CCC[C@H]1C(=O)O` [Bradykinin potentiator B, Pyr-Gly-Leu-Pro-Pro-Arg-Pro-Lys-Ile-Pro-Pro-OH] ([pGlu]GLPPRPKIPP-OH) was tested, and the “% inhibition of migration” value [1] was 16%, the “% of PHA induced control” value [2] was 88.6% and the “IFNγ spleen cells; TH1 response (% of control)” value [3] was 79.5 % of control. For the same compound, the “IL-2 spleen cells (% of control)” value [3] was 101.3 % of control, the “IL-4 spleen cells; TH2 response (% of control)” value [3] was 103.5 % of control and the “IL-5 spleen cells; TH2 response (% of control)” value [3] was 55.0 % of control. The “TNF-a spleen cells; TH1 response (% of control)” value [3] was 121.2 % of control, the “% prevention of ceramide induced apoptosis” value (A549 cells [4]) was 0.0% and the “% plaque reduction” value (HCMV strain AD169) was 0.0%. The “% of SAC/IL2 induced control” value [5] was 102.0%, the “% inhibition of HBV replication in HEP G2 cells” value [6] was 46.6% and the “% of LPS induction” value [7] was 86.3%. For the same compound, the “% of control phagocytosis” value (RAW 264.7 cells) was 140.0%, the “% inhibition of tube formation” value (HUVEC) was 26% and the “% CPE reduction in HIV-1 infected CEM-SS cells” value (HIV-1IIIB) was 0.0%. The “Cell cycle analysis G0/G1” value (A549 cells [8]) was 57.6, the “Cell cycle analysis G2/M” value (A549 cells [8]) was 10.6 and the “Cell cycle analysis S” value (A549 cells [8]) was 31.8. For the same compound, the “% of induction” value (A549 cells [9]) was 1.1%.
